Values quoted from earlier work as cited in article PMC8288134, “Synthesis, potential antitumor activity, cell cycle analysis, and multitarget mechanisms of novel hydrazones incorporating a 4-methylsulfonylbenzene scaffold: a molecular docking study” (Journal of Enzyme Inhibition and Medicinal Chemistry, 2021).

Tested on: CAKI-1
Set-up: method as in https://dtp.cancer.gov/dtpstandard/dwindex/index.jsp
Conditions: reference drugs, ref https://dtp.cancer.gov/dtpstandard/dwindex/index.jsp; cited from earlier work

## COc1cc2ncnc(Nc3ccc(F)c(Cl)c3)c2cc1OCCCN1CCOCC1 [Gefitinib, gefitinib]
  GI50: 501 nM
